Assay results reported in PMC10077752, “Insights on the in-vitro binding interaction between donepezil and bovine serum albumin” (BMC Chemistry, 2023).

Sequences of proteins named here, by UniProt entry; tags and fusion partners are left off. Residues count along the entry.
UniProt P02769, 25-607: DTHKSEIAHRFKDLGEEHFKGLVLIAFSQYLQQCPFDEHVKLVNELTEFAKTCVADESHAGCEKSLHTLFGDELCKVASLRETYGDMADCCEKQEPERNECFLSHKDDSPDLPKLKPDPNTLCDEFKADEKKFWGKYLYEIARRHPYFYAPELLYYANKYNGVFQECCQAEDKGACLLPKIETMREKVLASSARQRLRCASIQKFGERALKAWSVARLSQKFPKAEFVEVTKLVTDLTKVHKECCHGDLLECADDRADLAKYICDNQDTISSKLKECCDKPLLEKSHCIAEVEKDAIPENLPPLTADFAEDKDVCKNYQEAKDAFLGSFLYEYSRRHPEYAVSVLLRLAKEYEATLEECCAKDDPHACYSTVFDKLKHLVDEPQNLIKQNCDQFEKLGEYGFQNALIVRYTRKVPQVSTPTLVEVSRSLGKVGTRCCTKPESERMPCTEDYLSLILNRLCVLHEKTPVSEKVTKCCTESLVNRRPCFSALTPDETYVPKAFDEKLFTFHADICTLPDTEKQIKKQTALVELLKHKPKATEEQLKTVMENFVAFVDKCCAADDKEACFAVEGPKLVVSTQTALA

Target: T1, bovine serum albumin (BSA) (Bos taurus, UniProt P02769)
T1 construct: gene ALB
Details: 298 K, 20 mM Tris pH 7.4, BSA 4 × 10^–8 M, excitation 285 nm; site I (subdomain IIA) by site-marker competition

kb × 10^4 (Lmol^-1): 1.472 × 10^4 Lmol^−1
Structure (SMILES): COc1cc2c(cc1OC)C(=O)C(CC1CCN(Cc3ccccc3)CC1)C2 (stereo not shown) [donepezil]
